# Test results from PubChem BioAssay AID2685 (National Center for Advancing Translational Sciences (NCATS), 2010).
# Some of the results follow. Further columns of the screen follow, without active or inactive calls. Most of these compounds were active or inconclusive in the main read-out, so they are no random draw. Potencies come from curve fits of mixed quality, noted in brackets.
# Test: qHTS Assay for Lipid Storage Modulators in Drosophila S3 Cells;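 as to cell number change: cells counted by Cell Tracker Red CMTPX staining in the red channel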
# Details: BODIPY lipid droplet fluorescence, 18-24 h; for cell number change: measured here: cell count max response, cells fed with added oleic acid
# Method in brief: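 Laser-scanning cytometry quantifies lipid droplet accumulation (500–530 nm total intensity; droplet/cell object ratio) in oleic acid-fed (400 uM added) Drosophila S3 cells treated with a concentration series. 20 uM Triacsin C defined 100% inhibition.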
# [1] = measured here: lipid fluorescence (Fed channel) AC50, cells fed with added oleic acid
# [2] = measured here: cell number channel AC50, cells fed with added oleic acid
SMILES,cell number change [%],AC50 [1],AC50 [2]
N#CCSc1nnc(COc2ccccc2)n1-c1ccccc1,-21.7,"29.1 µM [falling, single point]",–
COC(=O)Cn1cc(S(=O)(=O)NCc2ccc(C)cc2)c2cc([N+](=O)[O-])ccc21,24.3,–,"0.82 µM [rising, full curve, poor fit]"
CCCC(c1nnnn1Cc1ccc2c(c1)OCO2)N1CCC(C(N)=O)CC1 (centres undefined),-13.1,"7.31 µM [falling, single point]","6.51 µM [falling, single point]"
O=C(CN(C(=O)CNS(=O)(=O)c1ccc(F)cc1)c1ccc(F)cc1)NCc1ccco1,-19.2,"5.17 µM [falling, single point]","0.0082 µM [falling, full curve, poor fit]"
Oc1c(C=Nc2cccc3cccnc23)sc2ccccc12,-19.9,–,–
CCOC(=O)/C(=C/c1ccc(N2CCC(c3ccccc3)=N2)cc1)C(C)=O,19.5,"1.84 µM [rising, full curve, poor fit]","3.66 µM [rising, partial curve, poor fit]"
Nc1nccnc1C(=O)OCC(=O)NCCc1ccc(Cl)cc1,-39.6,"0.13 µM [falling, full curve, poor fit]","0.184 µM [falling, full curve]"
CN1c2ccc([N+](=O)[O-])cc2N(C)C1(C)c1ccccc1 (centres undefined),-44.2,"6.51 µM [falling, partial curve]","29.1 µM [falling, single point]"
C/C(CC(=O)Nc1ccc(Cl)cc1Cl)=N\NC(=O)c1cnccn1,23.4,–,–
CCCCN(C(=O)c1ccc(N(C)S(=O)(=O)c2ccc(C)cc2)cc1)c1c(N)n(CCCC)c(=O)[nH]c1=O,19.9,"14.6 µM [rising, single point]",–
CC(C)(C)c1ccc(C(=O)NNC(=S)NCC2CCCO2)cc1 (centres undefined),0.705,"18.4 µM [rising, single point]",–
O=C(COC(=O)c1ccc(S(=O)(=O)N2CCOCC2)cc1)NC1CCCC1,-21.6,"3.66 µM [falling, full curve]",–
CCCc1nc(SCC(=O)NCc2ccco2)c2c(=O)n(C)c(=O)n(C)c2n1,–,–,"0.082 µM [rising, full curve]"
Cc1nnc(NC(=O)c2cccc(S(=O)(=O)N3CCc4ccccc43)c2)s1,23.4,"29.1 µM [rising, single point]",–
O=C(COc1ccccc1Cl)Nc1ccc2[nH]c(=O)[nH]c2c1,54.6,"18.4 µM [rising, partial curve]","5.17 µM [rising, full curve]"
O=C(NC1CCCCCCC1)c1cc(COc2ccc3ncccc3c2)on1,-33.8,"25.9 µM [falling, partial curve, poor fit]","29.1 µM [falling, partial curve]"
CN(C)c1ccc(C(CNS(=O)(=O)c2ccc(F)cc2)c2c[nH]c3ccccc23)cc1 (centres undefined),–,"18.4 µM [falling, single point]",–
CN1C(=O)/C(=C/c2cn(CC(=O)N3CCCCC3)c3ccccc23)c2ccccc21,-1.7,"1.84 µM [rising, partial curve]","1.84 µM [rising, partial curve]"
O=C(O)c1ccc(N/N=C/c2cc(Br)cs2)cc1,18.5,"14.6 µM [rising, single point]",–
Cc1ccc(-n2nc3c(=O)n(C(C)C(=O)NCCC4=CCCCC4)nc(C)c3c2C)cc1 (centres undefined),2.64,–,–
Cc1nc2ccc(S(=O)(=O)NCC(=O)NCCN3CCCCC3C)cc2s1 (centres undefined),-5.17,"6.51 µM [falling, single point]",–
COc1ccc(S(=O)(=O)N2CCC(C(=O)NCc3ccc(C)cc3)CC2)cc1,-14.1,–,–
COC(=O)c1nn(Cc2ccccc2)c(=O)c2ccccc12,71.2,"2.06 µM [rising, partial curve, poor fit]","8.2 µM [rising, partial curve]"
NNc1ccc(Cl)nn1,8.51,"1.84 µM [rising, partial curve, poor fit]",–
O=C(CSc1n[nH]c(-c2cccs2)n1)N1CCN(S(=O)(=O)c2ccccc2)CC1,-27.4,"6.51 µM [rising, single point]",–
CC(C)(C)C(=O)/C(=C\c1ccc([N+](=O)[O-])cc1)n1cncn1,-64.3,"6.51 µM [falling, partial curve]","10.3 µM [falling, partial curve]"
CN(CCC#N)C(=S)Nc1ccc(S(=O)(=O)N2CCOCC2)cc1,87.3,"0.146 µM [rising, full curve]","0.116 µM [rising, full curve]"

# A second format for part of the listing above.
SMILES | cell number change [%] | AC50 [1] | AC50 [2]
O=C(NC1CCCCCCC1)c1cc(COc2ccc3ncccc3c2)on1 | -33.8 | 25.9 µM [falling, partial curve, poor fit] | 29.1 µM [falling, partial curve]
O=C(CSc1n[nH]c(-c2cccs2)n1)N1CCN(S(=O)(=O)c2ccccc2)CC1 | -27.4 | 6.51 µM [rising, single point] | –
